Measurements: patent USRE37534E1, “Pharmaceutical compositions” (BTG International Limited, priority 1982, dated 2002)

System: erythrocyte ghosts
Experiment: 59Fe associated with erythrocyte ghosts after lysis
Assay type: cell-based, human

Compound: Cc1occc(=O)c1[O-].Cc1occc(=O)c1[O-].Cc1occc(=O)c1[O-].[Fe+3] [Fe^III (maltol)3]
- Iron associated with ghosts (%), Triton lysis (lysis by 10% v/v Triton X100): <1%
- Iron associated with ghosts (%), Hypotonic lysis (lysis by 10 fold excess of water): <5%
